These results are taken from PubChem BioAssay AID2685 (National Center for Advancing Translational Sciences (NCATS), 2010).

A short description of this assay: qHTS Assay for Lipid Storage Modulators in Drosophila S3 Cells.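 On cell number change: cells counted by Cell Tracker Red CMTPX staining in the red channel.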 Conditions: BODIPY lipid droplet fluorescence, 18-24 h; for cell number change: measured here: cell count max response, cells fed with added oleic acid. In short, it runs like this:
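Drosophila S3 cells loaded with oleic acid (400 uM, as added) and compounds at several concentrations; lipid droplets imaged by 488-nm laser-scanning cytometry, 500–530 nm intensity and object ratio to cell channel. Percent activity normalized to 20 uM Triacsin C.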

[1] abbreviates: measured here: cell number channel AC50, cells fed with added oleic acid.
The mark [2] stands for this setting: measured here: lipid fluorescence (Fed channel) AC50, cells fed with added oleic acid.

As a reminder, the AC50 is the concentration at which the activity in the assay is half-maximal. Low values mean greater potency, high ones weaker potency.

Some of the results follow. These are further read-outs of the screen, such as a control signal, another cell line or another target. No call is given for them. Most of these compounds were active or inconclusive in the main read-out, so they are no random draw. The note in brackets gives the kind of curve behind each potency; many fits are weak.

Take `Cc1ccc(S(=O)(=O)NCCN=C(CN2CCOCC2)NS(=O)(=O)c2ccc(C)cc2)cc1`: the cell number change came to 80.5%. Besides, the AC50 under setting [1] is 13 µM [rising, partial curve]. Also, the AC50 under setting [2] was 6.51 µM [rising, single point].

Regarding `CC(=O)N/C(=N\OCc1ccc(Br)cc1)c1nonc1NC(C)=O`, the cell number change was 2.88%. Also, the AC50 under setting [2] was 2.31 µM [rising, full curve, poor fit].

With `COc1ccc2nc(Nc3ccccc3OC)sc2c1`, the cell number change is 11.2%.

With `COc1cc(N)c(Cl)cc1C(=O)N[C@H]1CCN(CCCOc2ccc(F)cc2)C[C@H]1OC`, the cell number change was -3.12%. The AC50 under setting [2] was 2.91 µM [rising, full curve].

On to `Oc1ccc(C=Nc2cccc3ccccc23)c(O)c1`, for which the cell number change is -27.4%.

`CCC(=O)OCC(=O)Nc1cc(S(=O)(=O)N(C)C)ccc1Cl`: the cell number change came to 11.7%. Besides, under setting [1], the AC50 is 0.103 µM [rising, full curve, poor fit].

For the molecule `CN(CC(=O)Nc1ccccc1Br)C(=O)c1ccc(COc2ccccc2)cc1`, the cell number change turned out to be 30.8%. Besides, the AC50 under setting [1] was 0.082 µM [rising, full curve, poor fit].

For `CCC(=O)Nc1ccc(S(=O)(=O)Nc2c(C)nc3nc[nH]n3c2=O)cc1`, the cell number change is -0.84%. Also, under setting [2], the concentration at half-maximal activity (AC50) is 0.146 µM [falling, single point].

On to `Cc1cc(C)c2c(CC(=O)O)c(C)[nH]c2c1`, for which the cell number change stood at 16.5%.

With `N#C/C(=C\c1ccc[nH]1)Sc1nc2ccccc2s1`, the cell number change was -0.323%.

For `O=c1ccc(-c2ccc(S(=O)(=O)Nc3cccc([N+](=O)[O-])c3)s2)n[nH]1`, the AC50 under setting [2] is 29.1 µM [falling, single point].

Consider `CN(C)S(=O)(=O)c1ccc(C(=O)Nc2nc(-c3cccs3)cs2)cc1`, for which the cell number change was -21%. Under setting [2], the AC50 was 9.2 µM [falling, partial curve].

Regarding `COc1ccc(OC(=O)c2c(C)nn(-c3ccccc3)c2C)cc1`, the cell number change is -38.5%. The AC50 under setting [1] is 29.1 µM [falling, single point].

For the molecule `CCCn1nnnc1NCc1ccccc1OCC`, the cell number change is 32.7%. Besides, the AC50 under setting [1] is 4.61 µM [rising, partial curve, poor fit].

Take `Cn1c(-c2ccc(Cl)cc2)cnc1N`: the cell number change was 18.1%.

As for `COc1ccc(Cn2c(=N)c(C(=O)NC3CCCCC3)cc3c(=O)n4ccccc4nc32)cc1`, under setting [1], the AC50 was 0.411 µM [falling, single point].

`COc1ccc(C(=O)NC(NC(=O)c2ccc(OC)cc2)c2ccccc2F)cc1`: the cell number change was 158%. Also, the AC50 under setting [1] is 14.6 µM [rising, partial curve].

As for `CCCn1c(SCc2ccccc2)nc2c1c(=O)[nH]c(=O)n2C`, the cell number change was found to be 7.34%. Also, under setting [2], the concentration at half-maximal activity (AC50) is 9.2 µM [rising, partial curve].

Turning to `Cc1ccc(NC(=O)COc2ccc(-n3ccnc3)cc2)cc1Cl`, the cell number change was -29%. Besides, the concentration at half-maximal activity (AC50) under setting [2] is 29.1 µM [falling, single point].

With `Cc1cccc(-n2c(=O)c3ccccc3n3c(=S)[nH]nc23)c1C`, the cell number change worked out at 6.52%. For the same molecule, the AC50 under setting [2] is 6.51 µM [falling, partial curve, poor fit].

Regarding `CC(C)c1ccc(OCC(=O)NCc2ccccc2)cc1`, the cell number change was found to be 7.94%.

For `COc1ccc(/C(N)=N/OC(=O)CCCN2C(=O)c3ccccc3C2=O)cc1OC`, the cell number change worked out at 3.28%. For the same molecule, under setting [1], the AC50 was 2.31 µM [rising, partial curve]. In addition, under setting [2], the AC50 is 4.11 µM [rising, single point].

For the molecule `Cc1ccc(-n2nc3cc(C)c(NC(=S)NC(=O)/C=C/c4ccco4)cc3n2)cc1`, under setting [2], the AC50 was 0.92 µM [rising, full curve, poor fit].

On to `C/C(CC(=O)NC(C)C)=N\NC(=O)C(c1ccccc1)c1ccccc1`, for which the cell number change worked out at 23.2%. Besides, the AC50 under setting [2] was 0.291 µM [rising, partial curve, poor fit].

`N#Cc1cc2sc3nc4ccccc4n3c2cc1C#N`: the cell number change came out at 15%.

As to `COc1ccc(NC(=O)C2CCCCN2CC(=O)OCc2ccccc2)cc1OC` (centres undefined), under setting [2], the concentration at half-maximal activity (AC50) is 9.2 µM [rising, partial curve, poor fit].

For the molecule `COc1cc(CCC(=O)OCC(=O)Nc2ccc(F)c(F)c2)cc(OC)c1OC`, under setting [2], the AC50 is 5.17 µM [rising, single point].

Take `CC(C)(C)c1csc(NC(=O)c2ccncc2)n1`: the cell number change is -1.92%. The AC50 under setting [1] was 6.51 µM [rising, single point].

Turning to `CC(C)(C)c1ccccc1NC(=S)NC1CCCC1`, under setting [2], the AC50 is 0.58 µM [falling, single point].

Consider `CCNc1nnc(SCC(=O)N2c3ccccc3NC(=O)CC2C)s1` (centres undefined), for which the cell number change amounted to 0.413%.

For the molecule `COC(=O)C(C)Sc1nc2c([nH]c3ccccc32)c(=O)n1C` (centres undefined), the cell number change was -38.3%. Also, the AC50 under setting [1] was 29.1 µM [falling, single point]. Moreover, the AC50 under setting [2] is 0.082 µM [rising, full curve, poor fit].

Take `Cc1ccc(/C=N/NC(=O)Cn2cnc3ccccc32)cc1`: the AC50 under setting [1] is 0.58 µM [falling, single point] and the AC50 under setting [2] was 0.58 µM [falling, single point].

For `Cc1ccccc1OCC(=O)NC(=S)Nc1ccc2c3c(cccc13)CC2`, the cell number change was -15.9%. The half-maximal activity concentration (AC50) under setting [2] was 1.84 µM [falling, partial curve].

Take `COc1cc(CCC(=O)NCc2ccc(F)cc2)cc(OC)c1OC`: the cell number change was 5.41%. Further, under setting [2], the AC50 was 6.51 µM [falling, single point].

`COc1cccc(CNc2cccc(C(F)(F)F)c2)c1O`: the cell number change is -42.6%. Further, the AC50 under setting [1] is 29.1 µM [falling, single point]. Besides, under setting [2], the AC50 was 23.1 µM [falling, single point].

Consider `Nc1c(C(=O)NCCN2CCOCC2)c2nc3ccccc3nc2n1-c1cccc(F)c1`, for which the cell number change was -80.9%. Also, the AC50 under setting [1] is 14.6 µM [falling, single point]. Further, under setting [2], the AC50 was 29.1 µM [falling, single point].

Regarding `CCOc1ccc2c(C)cc(=O)oc2c1OCC`, the cell number change is -23.5%. In addition, the AC50 under setting [2] was 14.6 µM [falling, partial curve, poor fit].

With `O=[N+]([O-])c1ccc(Oc2ccc(-c3nnco3)cc2)c(Cl)c1`, under setting [2], the AC50 was 0.00461 µM [rising, full curve, poor fit].

Consider `CCN(CCCNC(=O)CCC(=O)N1CCOc2ccccc21)Cc1ccccc1`, for which the cell number change was 29.4%. For the same molecule, under setting [2], the AC50 is 6.51 µM [rising, single point].

Take `O=C(COc1ccccc1O)NC1CCCC1`: the cell number change was -18.5%. The AC50 under setting [1] is 0.259 µM [falling, partial curve, poor fit].

For `CCOC(=O)c1cc2sccc2n1CC(=O)Nc1ccc(OC)cc1`, the cell number change was -24.4%. The AC50 under setting [1] was 2.59 µM [falling, full curve, poor fit]. Further, the AC50 under setting [2] is 3.66 µM [falling, single point].

On to `CCOC(=O)CC(=O)Nc1cc(Cl)ccc1O`, for which the cell number change is -1.69%. The AC50 under setting [2] was 29.1 µM [falling, single point].

Turning to `Nc1nc(SCC(=O)NC2CCCCC2)n[nH]1`, the cell number change was -0.0276%.

As for `O=C(N/N=C/c1sc(N2CCOCC2)nc1-c1ccccc1)c1ccc(O)cc1`, the cell number change was -13.4%. For the same molecule, the AC50 under setting [2] was 16.4 µM [falling, single point].

For `COc1ccc(CCNC(=O)c2ccc3nc[nH]c3c2)cc1`, the cell number change was determined as 19.1%. Besides, the AC50 under setting [2] is 20.6 µM [rising, single point].

Consider `CCOC(=O)c1cnc2nc(SC)nn2c1N`, for which the cell number change was -23.6%.

On to `CCc1ccc(C2=NN(C(=O)CCC(=O)O)C(c3cccs3)C2)cc1` (centres undefined), for which the AC50 under setting [2] was 20.6 µM [falling, single point].

In the case of `Cc1nnsc1C(=O)NC1CCCc2c1cnn2-c1ccc(F)cc1F` (centres undefined), the cell number change was -39.9%. For the same molecule, the AC50 under setting [1] is 8.2 µM [falling, partial curve, poor fit]. Also, under setting [2], the AC50 was 2.06 µM [falling, full curve].

As for `COc1ccc(OC)c(S(=O)(=O)Nc2cc3c4c(c2)CC(=O)N4CCC3)c1`, the AC50 runs as follows: under setting [1], 0.0651 µM [rising, full curve]; under setting [2], 0.116 µM [rising, full curve].

`COc1ccc(S(=O)(=O)N(C)C)cc1NS(=O)(=O)c1ccc(F)c(F)c1F`: the cell number change is -11.9%. The AC50 under setting [2] was 6.51 µM [falling, single point].

For `Cc1c(NC(=O)c2ccc(NS(=O)(=O)c3ccccc3)cc2)c(=O)n(-c2ccccc2)n1C`, the cell number change was -14.4%. Further, the AC50 under setting [2] was 29.1 µM [falling, single point].

Regarding `Cc1cc2nnc(SCC(=O)NC3CCCCC3)n2c(N)n1`, the cell number change worked out at 14.3%.

For `c1ccc(OCCCc2nc(-c3ccccn3)no2)cc1`, the AC50 under setting [1] was 6.51 µM [rising, single point].

On to `NC(=O)c1c(NC(=O)c2cccnc2Cl)sc2c1CCCC2`, for which the cell number change is -14.6%. Further, under setting [1], the half-maximal activity concentration (AC50) was 0.731 µM [falling, full curve, poor fit]. Besides, the AC50 under setting [2] was 18.4 µM [rising, single point].

As to `Cc1ccc(NC(=O)c2c(C)noc2C)cc1`, the cell number change came to 11.9%. In addition, the AC50 under setting [2] is 0.116 µM [rising, full curve, poor fit].

In the case of `CSc1nc(C)c(CCOCc2ccc(F)cc2)c(=O)[nH]1`, the cell number change was -53.2%.

As for `N#CC1(NC(=O)COC(=O)c2ncc(Cl)c(Cl)c2Cl)CCCCC1`, the cell number change is -32.3%. Further, the AC50 under setting [1] was 14.6 µM [falling, partial curve]. For the same molecule, the AC50 under setting [2] is 11.6 µM [falling, partial curve].

Turning to `CC12CC3CC(C)(C1)CC(C(=O)N1CCN(C(=O)c4ccco4)CC1)(C3)C2`, the cell number change is -29.4%. Under setting [2], the AC50 was 20.6 µM [falling, partial curve].

`CCOc1cc(N2CCOCC2)c(OCC)cc1NC(=O)Cn1cnc2c(=O)n(C)c(=O)n(C)c21`: the cell number change was 12.7%. The AC50 under setting [1] was 0.00517 µM [rising, full curve, poor fit].

Regarding `CCOC(=O)c1cc2c(nc1N)CCCC2`, the cell number change came out at 10.6%. For the same molecule, the AC50 under setting [2] was 29.1 µM [rising, single point].

With `C/C(=N\NC(=O)CSc1nc2ccccc2c(=O)n1-c1ccccc1C)c1cccs1`, the cell number change was -26.8%. In addition, the concentration at half-maximal activity (AC50) under setting [2] was 2.06 µM [rising, full curve].

Take `O=C(Cc1n[nH]c(=O)c2ccccc12)OCC(=O)c1ccc2c(c1)OCCO2`: the cell number change is -11.2%.

Regarding `C[C@H](O)[C@H](O)[C@H]1CNc2nc(N)[nH]c(=O)c2N1`, the cell number change is -16.9%. Further, the concentration at half-maximal activity (AC50) under setting [2] is 0.206 µM [falling, full curve, poor fit].

With `CCOC(=O)C1CCCN(c2ncnc3c2cnn3-c2cccc(C)c2)C1` (centres undefined), the cell number change is -9.21%.
